Data from article doi:10.1101/2025.07.01.662580.
Results are given in words; binding and its absence hold for the method and conditions named. Some results given as binding are weak or reduced against the parent protein; the word gives no strength. Where a sequence is shown, tags or fusion partners need not be part of it.

B1: peptide representing the conserved Zasp motif (ZM) of ZASP/Cypher (LDB3), 26-mer, wild type (peptide)
peptide: SSQPRQYNNPIGLYSAETLREMAQMY
B2: Zasp motif (ZM) peptide of ZASP/Cypher (LDB3) with the T106I mutation, 26-mer (peptide)
peptide: SSQPRQYNNPIGLYSAEILREMAQMY

Biological target: T1, Phosphoglucomutase-1 (PGM1), recombinant human (human) (UniProt P36871)
T1 sequence (chain, RED-tris-NTA dye bound to the His6 tag): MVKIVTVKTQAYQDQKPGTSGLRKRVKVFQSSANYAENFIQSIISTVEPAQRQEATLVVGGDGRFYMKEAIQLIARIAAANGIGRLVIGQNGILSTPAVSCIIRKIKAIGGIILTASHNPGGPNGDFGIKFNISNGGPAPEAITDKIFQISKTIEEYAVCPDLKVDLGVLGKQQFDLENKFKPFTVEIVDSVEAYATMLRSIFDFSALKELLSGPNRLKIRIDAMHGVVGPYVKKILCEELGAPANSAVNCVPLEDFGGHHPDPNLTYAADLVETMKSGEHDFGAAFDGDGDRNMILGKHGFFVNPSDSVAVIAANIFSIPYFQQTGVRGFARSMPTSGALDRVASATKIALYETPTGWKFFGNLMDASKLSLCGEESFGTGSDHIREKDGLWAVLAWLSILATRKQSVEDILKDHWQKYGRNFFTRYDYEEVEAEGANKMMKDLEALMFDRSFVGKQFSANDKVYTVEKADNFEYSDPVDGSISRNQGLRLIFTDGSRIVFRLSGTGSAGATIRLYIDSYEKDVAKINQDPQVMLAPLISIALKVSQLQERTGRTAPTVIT
Assay: MST

Binder | binding
B1 | binds
B2 | binds
